Experimental data reported in PubChem BioAssay AID188 (DTP/NCI, 2004).
The mice bore no tumour; each value counts animals alive of those treated. Survivors were counted at the toxicity check, usually on the fifth day, unless a day is given; later deaths do not show. Schedules are NCI's codes, taken here to give the interval after Q, in days (D) or hours (H), and the number of doses after X.

Tested on: CD2F1 mice, nontumored, toxicity/survival
Test: NCI In Vivo Anticancer Drug Screen. Data for tumor model Nontumored Animals (Toxicity Test) in CD2F1 (CDF1) mice

## C[C@]12C=CC(=O)C=C1CC[C@@H]1[C@@H]2C(=O)C[C@@]2(C)[C@H]1CC[C@]2(O)C(=O)CO
dose: 6.25 mg/kg/injection, schedule: Q03HX008 (ip), vehicle: saline
  survivor count: 8 of 8
dose: 6.25 mg/kg/injection, schedule: Q03HX016 (ip), vehicle: saline
  survivor count: 8 of 8
dose: 6.25 mg/kg/injection, schedule: Q03HX024 (ip), vehicle: saline
  survivor count: 8 of 8
dose: 12.5 mg/kg/injection, schedule: Q03HX008 (ip), vehicle: saline
  survivor count: 8 of 8
dose: 12.5 mg/kg/injection, schedule: Q03HX016 (ip), vehicle: saline
  survivor count: 8 of 8
dose: 12.5 mg/kg/injection, schedule: Q03HX024 (ip), vehicle: saline
  survivor count: 8 of 8
dose: 25.0 mg/kg/injection, schedule: Q01DX009 (ip), vehicle: saline
  survivor count: 8 of 8
dose: 25.0 mg/kg/injection, schedule: Q03HX008 (ip), vehicle: saline
  survivor count: 8 of 8
dose: 25.0 mg/kg/injection, schedule: Q03HX016 (ip), vehicle: saline
  survivor count: 8 of 8
dose: 25.0 mg/kg/injection, schedule: Q03HX024 (ip), vehicle: saline
  survivor count: 8 of 8
dose: 30.0 mg/kg/injection, schedule: Q04DX002 (sc), vehicle: Klucel (hydroxypropylcellulose) (HPC)
  survivor count: 10 of 10
dose: 45.0 mg/kg/injection, schedule: Q04DX002 (sc), vehicle: Klucel (hydroxypropylcellulose) (HPC)
  survivor count: 10 of 10
dose: 50.0 mg/kg/injection, schedule: Q01DX001 (ip), vehicle: saline
  survivor count: 8 of 8
dose: 50.0 mg/kg/injection, schedule: Q01DX001 (oral), vehicle: saline
  survivor count: 8 of 8
dose: 50.0 mg/kg/injection, schedule: Q01DX009 (ip), vehicle: saline
  survivor count: 8 of 8
dose: 50.0 mg/kg/injection, schedule: Q01DX009 (oral), vehicle: saline
  survivor count: 8 of 8
dose: 50.0 mg/kg/injection, schedule: Q03HX008 (ip), vehicle: saline
  survivor count: 8 of 8
dose: 50.0 mg/kg/injection, schedule: Q03HX016 (ip), vehicle: saline
  survivor count: 8 of 8
dose: 50.0 mg/kg/injection, schedule: Q03HX024 (ip), vehicle: saline
  survivor count: 8 of 8
dose: 50.0 mg/kg/injection, schedule: Q04DX003 (ip), vehicle: saline
  survivor count: 8 of 8
dose: 50.0 mg/kg/injection, schedule: Q08DX002 (ip), vehicle: saline
  survivor count: 8 of 8
dose: 67.0 mg/kg/injection, schedule: Q04DX002 (sc), vehicle: Klucel (hydroxypropylcellulose) (HPC)
  survivor count: 10 of 10
dose: 100.0 mg/kg/injection, schedule: Q01DX001 (ip), vehicle: saline
  survivor count: 8 of 8
dose: 100.0 mg/kg/injection, schedule: Q01DX001 (oral), vehicle: saline
  survivor count: 8 of 8
dose: 100.0 mg/kg/injection, schedule: Q01DX009 (ip), vehicle: saline
  survivor count: 8 of 8
dose: 100.0 mg/kg/injection, schedule: Q01DX009 (oral), vehicle: saline
  survivor count: 7 of 8
dose: 100.0 mg/kg/injection, schedule: Q03HX008 (ip), vehicle: saline
  survivor count: 8 of 8
dose: 100.0 mg/kg/injection, schedule: Q03HX016 (ip), vehicle: saline
  survivor count: 8 of 8
dose: 100.0 mg/kg/injection, schedule: Q03HX024 (ip), vehicle: saline
  survivor count: 8 of 8
dose: 100.0 mg/kg/injection, schedule: Q04DX002 (sc), vehicle: Klucel (hydroxypropylcellulose) (HPC)
  survivor count: 10 of 10
dose: 100.0 mg/kg/injection, schedule: Q04DX003 (ip), vehicle: saline
  survivor count: 8 of 8
dose: 100.0 mg/kg/injection, schedule: Q08DX002 (ip), vehicle: saline
  survivor count: 8 of 8
dose: 133.0 mg/kg/injection, schedule: Q01DX001 (sc), vehicle: Klucel (hydroxypropylcellulose) (HPC)
  survivor count: 10 of 10
dose: 200.0 mg/kg/injection, schedule: Q01DX001 (ip), vehicle: saline
  survivor count: 8 of 8
dose: 200.0 mg/kg/injection, schedule: Q01DX001 (oral), vehicle: saline
  survivor count: 8 of 8
dose: 200.0 mg/kg/injection, schedule: Q01DX001 (sc), vehicle: Klucel (hydroxypropylcellulose) (HPC)
  survivor count: 10 of 10
dose: 200.0 mg/kg/injection, schedule: Q01DX009 (ip), vehicle: saline
  survivor count: 8 of 8
dose: 200.0 mg/kg/injection, schedule: Q01DX009 (oral), vehicle: saline
  survivor count: 8 of 8
dose: 200.0 mg/kg/injection, schedule: Q04DX003 (ip), vehicle: saline
  survivor count: 8 of 8
dose: 200.0 mg/kg/injection, schedule: Q08DX002 (ip), vehicle: saline
  survivor count: 8 of 8
dose: 300.0 mg/kg/injection, schedule: Q01DX001 (sc), vehicle: Klucel (hydroxypropylcellulose) (HPC)
  survivor count: 10 of 10
dose: 400.0 mg/kg/injection, schedule: Q01DX001 (ip), vehicle: saline
  survivor count: 8 of 8
dose: 400.0 mg/kg/injection, schedule: Q01DX001 (oral), vehicle: saline
  survivor count: 8 of 8
dose: 400.0 mg/kg/injection, schedule: Q01DX009 (ip), vehicle: saline
  survivor count: 8 of 8
dose: 400.0 mg/kg/injection, schedule: Q01DX009 (oral), vehicle: saline
  survivor count: 7 of 8
dose: 400.0 mg/kg/injection, schedule: Q04DX003 (ip), vehicle: saline
  survivor count: 8 of 8
dose: 400.0 mg/kg/injection, schedule: Q08DX002 (ip), vehicle: saline
  survivor count: 8 of 8
dose: 450.0 mg/kg/injection, schedule: Q01DX001 (sc), vehicle: Klucel (hydroxypropylcellulose) (HPC)
  survivor count: 10 of 10
dose: 800.0 mg/kg/injection, schedule: Q01DX001 (ip), vehicle: saline
  survivor count: 8 of 8
dose: 800.0 mg/kg/injection, schedule: Q01DX001 (oral), vehicle: saline
  survivor count: 8 of 8
dose: 800.0 mg/kg/injection, schedule: Q01DX009 (oral), vehicle: saline
  survivor count: 8 of 8
dose: 800.0 mg/kg/injection, schedule: Q04DX003 (ip), vehicle: saline
  survivor count: 8 of 8
dose: 800.0 mg/kg/injection, schedule: Q08DX002 (ip), vehicle: saline
  survivor count: 8 of 8

## CCOC(=O)CCC(NC(=O)c1ccc(NCCc2cnc3nc(N)[nH]c(=O)c3n2)cc1)C(=O)OCC (stereo not given)
dose: 1.0 mg/kg/injection, schedule: Q01DX001 (ip), vehicle: saline with Tween-80
  survivor count: 2 of 2
dose: 10.0 mg/kg/injection, schedule: Q01DX001 (ip), vehicle: saline with Tween-80
  survivor count: 2 of 2
dose: 100.0 mg/kg/injection, schedule: Q01DX001 (ip), vehicle: saline with Tween-80
  survivor count: 2 of 2

## Oc1ccc2c3c1OC1C(O)C=CC4C(C2)NCCC341 (stereo not given)
dose: 1.0 mg/kg/injection, schedule: Q01DX001 (ip), vehicle: other
  survivor count: 2 of 2
dose: 10.0 mg/kg/injection, schedule: Q01DX001 (ip), vehicle: other
  survivor count: 2 of 2
dose: 100.0 mg/kg/injection, schedule: Q01DX001 (ip), vehicle: other
  survivor count: 2 of 2

## CCNc1ncc2ccccc2c1-c1ccc(NCCN(CCCl)CCCl)cc1
dose: 1.0 mg/kg/injection, schedule: Q01DX001 (ip), vehicle: water
  survivor count: 2 of 2
dose: 10.0 mg/kg/injection, schedule: Q01DX001 (ip), vehicle: water
  survivor count: 2 of 2
dose: 100.0 mg/kg/injection, schedule: Q01DX001 (ip), vehicle: water
  survivor count: 2 of 2

## CN(N=O)C(N)=O
dose: 36.0 mg/kg/injection, schedule: Q04DX003 (ip), vehicle: saline + alcohol
  survivor count: 4 of 4
dose: 60.0 mg/kg/injection, schedule: Q04DX003 (ip), vehicle: saline + alcohol
  survivor count: 4 of 4
dose: 100.0 mg/kg/injection, schedule: Q04DX003 (ip), vehicle: saline + alcohol
  survivor count: 4 of 4
